Source: PubChem BioAssay AID248 (DTP/NCI, 2004)
The list does not hold the whole screen: it gathers tests that were run many times, whatever their T/C, doses with no T/C, and many T/C values between a quarter and a half above the control. Further doses and runs are listed elsewhere. T/C: endpoint of the treated group in % of that of the vehicle group. Some entries give survivors of the animals treated and no T/C: the source files T/C as zero there, which appears to mark a toxic dose or a test without result, not a measured value. Some doses without a T/C left all or most animals alive at the check, yet need not have been tolerated: survival well below the control is almost never listed, so the zero probably covers shortened survival too. Survivors were counted at the toxicity check, usually on the fifth day, unless a day is given; later deaths do not show. Schedules are NCI's codes, taken here to give the interval after Q, in days (D) or hours (H), and the number of doses after X. Some schedule codes hold Z or #, which are not explained here. For survival time, this PubChem deposit counts one and a half times the control or more as active, and values a quarter to a half above the control carry no call in these data; other NCI protocols may use other cut-offs.

Tested on: L1210 leukemia ip in BDF1 mice, survival T/C
Assay: NCI In Vivo Anticancer Drug Screen. Data for tumor model L1210 Leukemia (intraperitoneal) in B6D2F1 (BDF1) mice
Conditions: T/C endpoint: mean survival time, higher T/C = longer survival
[1] = dose: 400.0 mg/kg/injection, schedule: Q01DX009 (ip), vehicle: saline with Tween-80
[2] = dose: 400.0 mg/kg/injection, schedule: Q04DX002 (ip), vehicle: Klucel (hydroxypropylcellulose) (HPC)
[3] = dose: 200.0 mg/kg/injection, schedule: Q04DX002 (ip), vehicle: Klucel (hydroxypropylcellulose) (HPC)
[4] = dose: 400.0 mg/kg/injection, schedule: Q01DX009 (ip), vehicle: Klucel (hydroxypropylcellulose) (HPC)

O=C(O)CCC1(CCC(=O)O)OCCO1.[Ag]
survivor count (dose: 75.0 mg/kg/injection, schedule: Q01DX001 (ip), vehicle: other): 0 of 6 | survivor count (dose: 150.0 mg/kg/injection, schedule: Q01DX001 (ip), vehicle: other): 0 of 6 | survivor count (dose: 300.0 mg/kg/injection, schedule: Q01DX001 (ip), vehicle: other): 2 of 6

Nc1nc2nc3c(nc2c(=O)[nH]1)CN(c1ccc(C(=O)NC(CCC(=O)O)C(=O)O)cc1)C3=O (stereo not given)
survivor count [1]: 3 of 6

CCOC(=O)c1[nH]c(C)c(CCCC(=O)O)c1C
survivor count (dose: 300.0 mg/kg/injection, schedule: Q01DX001 (ip), vehicle: acetone): 0 of 6

C=CCc1ccc(OCCOCCNC2CC3CCC2(C)C3(C)C)c(OC)c1 (stereo not given)
survivor count (dose: 200.0 mg/kg/injection, schedule: Q04DX003 (ip), vehicle: Klucel (hydroxypropylcellulose) (HPC)): 0 of 6 | survivor count (dose: 400.0 mg/kg/injection, schedule: Q04DX003 (ip), vehicle: Klucel (hydroxypropylcellulose) (HPC)): 0 of 6

O=C(O)C(=O)Nc1ncn[nH]1
T/C (dose: 25.0 mg/kg/injection, schedule: Q01DX005 (ip), vehicle: Klucel (hydroxypropylcellulose) (HPC)): 126 % of control | survivor count (dose: 100.0 mg/kg/injection, schedule: Q01DX005 (ip), vehicle: Klucel (hydroxypropylcellulose) (HPC)): 0 of 3 | survivor count (dose: 200.0 mg/kg/injection, schedule: Q01DX005 (ip), vehicle: Klucel (hydroxypropylcellulose) (HPC)): 2 of 3 | survivor count [2]: 0 of 3

CN/N=C/c1cc(=O)[nH]c(=O)[nH]1
survivor count (dose: 400.0 mg/kg/injection, schedule: Q01DX001 (ip), vehicle: saline): 2 of 4

CCCCCC1SC1CC1SC1CCCCCCCC(=O)NCCCOCCOCCOCC (stereo not given)
survivor count [1]: 5 of 6

Cc1cccc(C)c1NC(=O)N1CCN(C)CC1
survivor count [3]: 3 of 3 | survivor count [4]: 2 of 6 | survivor count [2]: 3 of 3

O=C(O)c1ccc(-c2ccccc2)cc1
survivor count [4]: 5 of 6 | survivor count (dose: 400.0 mg/kg/injection, schedule: Q01DX Z (ip), vehicle: carboxymethylcellulose (CMC)): 6 of 6

O=C(CBr)NCC(S)c1ccc(Cl)cc1 (stereo not given)
survivor count (dose: 200.0 mg/kg/injection, schedule: Q01DX009 (ip), vehicle: Klucel (hydroxypropylcellulose) (HPC)): 5 of 6 | survivor count [4]: 3 of 6

CN(C(N)=O)c1c(O)nc(N)[nH]c1=O
survivor count (dose: 100.0 mg/kg/injection, schedule: Q04DX003 (ip), vehicle: water): 6 of 6 | survivor count (dose: 200.0 mg/kg/injection, schedule: Q04DX003 (ip), vehicle: water): 3 of 6 | survivor count (dose: 400.0 mg/kg/injection, schedule: Q04DX003 (ip), vehicle: water): 4 of 6

CC(=O)Nc1ccc(Cc2[nH]c(=O)[nH]c(=O)c2Br)cc1
survivor count (dose: 400.0 mg/kg/injection, schedule: Q01DX001 (ip), vehicle: Klucel (hydroxypropylcellulose) (HPC)): 3 of 3

O=C(O)C(O)c1ccc(Cl)cc1 (stereo not given)
survivor count (dose: 400.0 mg/kg/injection, schedule: Q01DX009 (ip), vehicle: saline): 0 of 6

CCCC[S][Hg][I]
survivor count (dose: 12.5 mg/kg/injection, schedule: Q01DX009 (ip), vehicle: Klucel (hydroxypropylcellulose) (HPC)): 6 of 6 | survivor count (dose: 12.5 mg/kg/injection, schedule: Q04DX002 (ip), vehicle: Klucel (hydroxypropylcellulose) (HPC)): 0 of 3 | survivor count (dose: 18.0 mg/kg/injection, schedule: Q01DX009 (ip), vehicle: Klucel (hydroxypropylcellulose) (HPC)): 6 of 6 | survivor count (dose: 25.0 mg/kg/injection, schedule: Q04DX002 (ip), vehicle: Klucel (hydroxypropylcellulose) (HPC)): 0 of 3 | survivor count (dose: 28.0 mg/kg/injection, schedule: Q01DX009 (ip), vehicle: Klucel (hydroxypropylcellulose) (HPC)): 3 of 6 | survivor count (dose: 40.0 mg/kg/injection, schedule: Q01DX009 (ip), vehicle: Klucel (hydroxypropylcellulose) (HPC)): 0 of 6 | survivor count (dose: 50.0 mg/kg/injection, schedule: Q04DX002 (ip), vehicle: Klucel (hydroxypropylcellulose) (HPC)): 0 of 3 | survivor count (dose: 100.0 mg/kg/injection, schedule: Q04DX002 (ip), vehicle: Klucel (hydroxypropylcellulose) (HPC)): 0 of 3 | survivor count [3]: 0 of 3 | survivor count [2]: 0 of 3
